Results reported in patent US8110687B2, “Bicyclic compounds with kinase inhibitory activity” (Millennium Pharmaceuticals, Inc., priority 2005, dated 2012).
Read-outs that look alike come from different tables or passages of the source. Some of these results come from one statement about several compounds together.

By UniProt entry, the sequences of proteins in these tests, tags left out.
UniProt P15056, whole entry, stated change not applied: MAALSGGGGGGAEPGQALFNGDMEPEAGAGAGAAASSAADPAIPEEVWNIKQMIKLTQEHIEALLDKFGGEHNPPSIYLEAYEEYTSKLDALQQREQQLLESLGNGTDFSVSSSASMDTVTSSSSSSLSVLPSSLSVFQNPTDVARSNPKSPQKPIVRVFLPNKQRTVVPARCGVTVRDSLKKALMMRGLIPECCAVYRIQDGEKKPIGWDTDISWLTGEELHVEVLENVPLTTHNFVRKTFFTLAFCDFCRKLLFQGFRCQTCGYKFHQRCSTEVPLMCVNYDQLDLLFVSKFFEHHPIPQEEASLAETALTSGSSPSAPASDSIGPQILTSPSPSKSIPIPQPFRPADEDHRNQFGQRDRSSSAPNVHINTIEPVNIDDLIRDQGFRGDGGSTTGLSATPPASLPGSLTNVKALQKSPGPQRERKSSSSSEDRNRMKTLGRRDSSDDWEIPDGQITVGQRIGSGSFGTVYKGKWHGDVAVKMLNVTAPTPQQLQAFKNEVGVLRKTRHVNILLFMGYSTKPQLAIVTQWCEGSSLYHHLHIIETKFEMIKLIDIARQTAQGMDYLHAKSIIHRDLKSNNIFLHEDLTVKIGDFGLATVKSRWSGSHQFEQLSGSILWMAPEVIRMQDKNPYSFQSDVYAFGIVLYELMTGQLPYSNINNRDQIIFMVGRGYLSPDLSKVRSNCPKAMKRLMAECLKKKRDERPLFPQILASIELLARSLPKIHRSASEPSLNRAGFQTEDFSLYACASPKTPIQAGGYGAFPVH

Molecular target: B-Raf (V599E or Wild Type) (Homo sapiens, UniProt P15056)
Assay: B-Raf Flash Plate assay
Format: biochemical
Settings: Peptide 118, 0.5 μM ATP, 60 minutes
[1] = read-out: IC50, inhibition of the enzyme in B-Raf Flash Plate assay
[2] = read-out: IC50 in B-Raf Flash Plate assay

An IC50 [1] of at most 1 µM and an IC50 [2] of under 0.05 µM were found for `NCc1cc(NC(=O)c2cnc3ccc(Oc4ccnc(-c5ncc[nH]5)c4)cc3c2)cc(C(F)(F)F)c1` [Compound I-418, N-[3-(aminomethyl)-5-(trifluoromethyl)phenyl]-6-{[2-(1H-imidazol-2-yl)pyridin-4-yl]oxy}quinoline-3-carboxamide] in this work.
An IC50 [1] of at most 1 µM and an IC50 [2] of under 0.05 µM were found for `NCc1cc(NC(=O)c2cnc3ccc(Oc4ccnc(C5=NCCN5)c4)cc3c2)cc(C(F)(F)F)c1` [Compound I-388, N-[3-(aminomethyl)-5-(trifluoromethyl)phenyl]-6-{[2-(4,5-dihydro-1H-imidazol-2-yl)pyridin-4-yl]oxy}quinoline-3-carboxamide] in this work.
An IC50 [1] of at most 1 µM and an IC50 [2] of under 0.05 µM were found for `CCc1cccc(NC(=O)C2CCc3ccc(Oc4ccnc(NC(C)=O)c4)cc3C2)c1` (centres unmarked) [Compound I-374, 7-{[2-(acetylamino)pyridin-4-yl]oxy}-N-(3-ethylphenyl)-1,2,3,4-tetrahydronaphthalene-2-carboxamide] in this work.
An IC50 [1] of at most 1 µM and an IC50 [2] of under 0.05 µM were found for `CC(C)(C)c1cccc(NC(=O)c2ccc3ccc(Oc4ccnc(C(=N)N5CCCC5)c4)cc3c2)c1` [Compound I-93, N-(3-tert-butylphenyl)-7-({2-[imino(pyrrolidin-1-yl)methyl]pyridin-4-yl}oxy)-2-naphthamide] in this work.
An IC50 [1] of at most 1 µM and an IC50 [2] of under 0.05 µM were found for `CC(=O)Nc1cc(Oc2ccc3c(c2)CC(C(=O)Nc2cnc(C(C)(C)C)nc2)CC3)ccn1` (centres unmarked) [Compound I-208, 7-{[2-(acetylamino)pyridin-4-yl]oxy}-N-(2-tert-butylpyrimidin-5-yl)-1,2,3,4-tetrahydronaphthalene-2-carboxamide] in this work.
An IC50 [1] of at most 1 µM and an IC50 [2] of under 0.05 µM were found for `CCC(=O)Nc1cc(Oc2ccc3c(c2)CC(C(=O)Nc2cc(CN4CCCC4)cc(C(F)(F)F)c2)CC3)ccn1` (centres unmarked) [Compound I-359, 7-{[2-(propionylamino)pyridin-4-yl]oxy}-N-[3-(pyrrolidin-1-ylmethyl)-5-(trifluoromethyl)phenyl]-1,2,3,4-tetrahydronaphthalene-2-carboxamide] in this work.
An IC50 [1] of at most 1 µM and an IC50 [2] of under 0.05 µM were found for `O=C(Nc1cc(OCCN2CCCC2)cc(C(F)(F)F)c1)c1ccc2ccc(Oc3ccnc(C4=NCCN4)c3)cc2c1` [Compound I-18, 7-{[2-(4,5-dihydro-1H-imidazol-2-yl)pyridin-4-yl]oxy}-N-[3-(2-pyrrolidin-1-ylethoxy)-5-(trifluoromethyl)phenyl]-2-naphthamide] in this work.
An IC50 [1] of at most 1 µM and an IC50 [2] of under 0.05 µM were found for `CNC(=O)c1cc(Oc2ccc3c(c2)CC(C(=O)Nc2cc(CN(CCN4CCCC4)C(=O)OC(C)(C)C)cc(C(F)(F)F)c2)CC3)ccn1` (centres unmarked) [Compound I-283, tert-butyl [3-({[7-({2-[(methylamino)carbonyl]pyridin-4-yl}oxy)-1,2,3,4-tetrahydronaphthalen-2-yl]carbonyl}amino)-5-(trifluoromethyl)benzyl](2-pyrrolidin-1-ylethyl)carbamate] in this work.
An IC50 [1] of at most 1 µM was found for `O=C(Nc1ccc(CN2CCCC2)c(C(F)(F)F)c1)C1CCc2ccc(Oc3ccnc(C4=NCCN4)c3)cc2C1` (centres unmarked) [Compound I-107, 7-{[2-(4,5-dihydro-1H-imidazol-2-yl)pyridin-4-yl]oxy}-N-[4-(pyrrolidin-1-ylmethyl)-3-(trifluoromethyl)phenyl]-1,2,3,4-tetrahydronaphthalene-2-carboxamide] in this work.
An IC50 [1] of at most 1 µM and an IC50 [2] of under 0.05 µM were found for `COC(=O)Nc1cc(Oc2ccc3c(c2)C[C@@H](C(=O)Nc2cc(CN)cc(C(F)(F)F)c2)CC3)ccn1` [Compound I-220, methyl (4-{[(7S)-7-({[3-(aminomethyl)-5-(trifluoromethyl)phenyl]amino}carbonyl)-5,6,7,8-tetrahydronaphthalen-2-yl]oxy}pyridin-2-yl)carbamate] in this work.
An IC50 [1] of at most 1 µM was found for `O=C(Nc1cc(C(F)(F)F)ccc1OCCN1CCNCC1)C1CCc2ccc(Oc3ccnc(C4=NCCN4)c3)cc2C1` (centres unmarked) [Compound I-261, 7-{[2-(4,5-dihydro-1H-imidazol-2-yl)pyridin-4-yl]oxy}-N-[2-(2-piperazin-1-ylethoxy)-5-(trifluoromethyl)phenyl]-1,2,3,4-tetrahydronaphthalene-2-carboxamide] in this work.
An IC50 [1] of at most 1 µM and an IC50 [2] of under 0.05 µM were found for `O=C(Nc1cc(C(F)(F)F)ccc1F)c1ccc2ccc(Oc3ccnc(C4=NCCN4)c3)cc2c1` [Compound I-13, 7-{[2-(4,5-dihydro-1H-imidazol-2-yl)pyridin-4-yl]oxy}-N-[2-fluoro-5-(trifluoromethyl)phenyl]-2-naphthamide] in this work.
An IC50 [1] of at most 1 µM and an IC50 [2] of under 0.05 µM were found for `CC(C)(C)c1cccc(NC(=O)C2=Cc3cc(Oc4ccnc(C5=NCCN5)c4)ccc3OC2)c1` [Compound I-12, N-(3-tert-butylphenyl)-6-{[2-(4,5-dihydro-1H-imidazol-2-yl)pyridin-4-yl]oxy}-2H-chromene-3-carboxamide] in this work.
An IC50 [1] of at most 1 µM and an IC50 [2] of under 0.05 µM were found for `O=C(Nc1cc(OC2CCNCC2)cc(C(F)(F)F)c1)c1ccc2ccc(Oc3ccnc(C4=NCCN4)c3)cc2c1` [Compound I-48, 7-{[2-(4,5-dihydro-1H-imidazol-2-yl)pyridin-4-yl]oxy}-N-[3-(piperidin-4-yloxy)-5-(trifluoromethyl)phenyl]-2-naphthamide] in this work.
An IC50 [1] of at most 1 µM and an IC50 [2] of under 0.05 µM were found for `CC(C)(C)c1cccc(NC(=O)c2cnc3ccc(Oc4ccncc4)cc3c2)c1` [Compound I-299, N-(3-tert-butylphenyl)-6-(pyridin-4-yloxy)quinoline-3-carboxamide] in this work.
An IC50 [1] of at most 1 µM and an IC50 [2] of under 0.05 µM were found for `CC(=O)Nc1cc(Oc2ccc3c(c2)CC(C(=O)Nc2cccc(C(C)(C)C)c2)CC3)ccn1` (centres unmarked) [Compound I-87, 7-{[2-(acetylamino)pyridin-4-yl]oxy}-N-(3-tert-butylphenyl)-1,2,3,4-tetrahydronaphthalene-2-carboxamide] in this work.
An IC50 [1] of at most 1 µM and an IC50 [2] of under 0.05 µM were found for `NCc1cc(NC(=O)C2CCc3ccc(Oc4ccnc(-c5cnco5)c4)cc3C2)cc(C(F)(F)F)c1` (centres unmarked) [Compound I-210, N-[3-(aminomethyl)-5-(trifluoromethyl)phenyl]-7-{[2-(1,3-oxazol-5-yl)pyridin-4-yl]oxy}-1,2,3,4-tetrahydronaphthalene-2-carboxamide] in this work.
An IC50 [1] of at most 1 µM and an IC50 [2] of under 0.05 µM were found for `CNCc1cc(NC(=O)C2CCc3ccc(Oc4ccnc(NC(=O)C5CC5)c4)cc3C2)cc(C(F)(F)F)c1` (centres unmarked) [Compound I-307, 7-({2-[(cyclopropylcarbonyl)amino]pyridin-4-yl}oxy)-N-[3-[(methylamino)methyl]-5-(trifluoromethyl)phenyl]-1,2,3,4-tetrahydronaphthalene-2-carboxamide] in this work.
An IC50 [1] of at most 1 µM and an IC50 [2] of under 0.05 µM were found for `CC(=O)Nc1cc(Oc2ccc3c(c2)CC(C(=O)Nc2cc(CN4CCOCC4)cc(C(F)(F)F)c2)CC3)ccn1` (centres unmarked) [Compound I-375, 7-{[2-(acetylamino)pyridin-4-yl]oxy}-N-[3-(morpholin-4-ylmethyl)-5-(trifluoromethyl)phenyl]-1,2,3,4-tetrahydronaphthalene-2-carboxamide] in this work.
An IC50 [1] of at most 1 µM and an IC50 [2] of under 0.05 µM were found for `CC(=O)Nc1cc(Oc2ccc3c(c2)CC(C(=O)Nc2cc(CN4CC[C@H](F)C4)cc(C(F)(F)F)c2)CC3)ccn1` (stereo partly drawn) [Compound I-312, 7-{[2-(acetylamino)pyridin-4-yl]oxy}-N-[3-{[(3S)-3-fluoropyrrolidin-1-yl]methyl}-5-(trifluoromethyl)phenyl]-1,2,3,4-tetrahydronaphthalene-2-carboxamide] in this work.
